According to publication PMC2773741:
These are yes or no findings as the source states them, for the method shown. Binding seen in cells or lysates may run through a third protein. Some results given as binding are weak or reduced against the parent protein; the word gives no strength.

Chains of the proteins cited; added tags and fusions are not shown. Lines headed by an entry give the natural chain unless they say otherwise; changes in a name come on top. A line that says so, or that is headed by a name, gives the form on record, which may keep a tag or linker. Residues count along the entry.
UniProt O43186: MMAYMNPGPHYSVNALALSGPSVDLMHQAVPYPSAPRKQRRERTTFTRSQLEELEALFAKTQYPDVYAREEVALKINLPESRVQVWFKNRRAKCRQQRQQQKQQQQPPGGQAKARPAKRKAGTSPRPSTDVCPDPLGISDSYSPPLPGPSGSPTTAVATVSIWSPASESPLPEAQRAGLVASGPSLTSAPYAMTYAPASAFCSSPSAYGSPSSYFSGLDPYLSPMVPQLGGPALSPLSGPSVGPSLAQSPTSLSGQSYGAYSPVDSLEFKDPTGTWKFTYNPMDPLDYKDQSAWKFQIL
NR2E3 p.Q350X (Q9Y5X4, residues 1-349): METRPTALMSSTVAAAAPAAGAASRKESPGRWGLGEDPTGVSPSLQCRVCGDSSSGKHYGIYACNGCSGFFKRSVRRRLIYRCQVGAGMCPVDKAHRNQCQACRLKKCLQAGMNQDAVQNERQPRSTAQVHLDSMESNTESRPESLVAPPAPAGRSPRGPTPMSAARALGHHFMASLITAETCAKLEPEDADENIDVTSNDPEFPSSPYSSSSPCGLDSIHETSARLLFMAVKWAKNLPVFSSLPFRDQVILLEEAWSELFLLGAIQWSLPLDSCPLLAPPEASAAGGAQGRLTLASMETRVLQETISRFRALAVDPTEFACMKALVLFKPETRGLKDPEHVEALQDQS
NR2E3 p.A256E (Q9Y5X4-1, form named): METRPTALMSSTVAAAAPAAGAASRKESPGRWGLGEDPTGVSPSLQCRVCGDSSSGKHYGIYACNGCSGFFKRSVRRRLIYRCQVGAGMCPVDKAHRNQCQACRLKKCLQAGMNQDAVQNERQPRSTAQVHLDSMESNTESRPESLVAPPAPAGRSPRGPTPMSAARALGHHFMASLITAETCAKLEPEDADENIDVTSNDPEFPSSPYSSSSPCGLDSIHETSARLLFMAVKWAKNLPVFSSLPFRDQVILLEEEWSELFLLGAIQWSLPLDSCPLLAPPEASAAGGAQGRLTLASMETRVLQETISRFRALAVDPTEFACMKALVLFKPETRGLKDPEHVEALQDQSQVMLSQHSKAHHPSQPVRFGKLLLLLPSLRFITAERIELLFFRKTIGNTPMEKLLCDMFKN
NR2E3 p.E121K (Q9Y5X4-1, form named): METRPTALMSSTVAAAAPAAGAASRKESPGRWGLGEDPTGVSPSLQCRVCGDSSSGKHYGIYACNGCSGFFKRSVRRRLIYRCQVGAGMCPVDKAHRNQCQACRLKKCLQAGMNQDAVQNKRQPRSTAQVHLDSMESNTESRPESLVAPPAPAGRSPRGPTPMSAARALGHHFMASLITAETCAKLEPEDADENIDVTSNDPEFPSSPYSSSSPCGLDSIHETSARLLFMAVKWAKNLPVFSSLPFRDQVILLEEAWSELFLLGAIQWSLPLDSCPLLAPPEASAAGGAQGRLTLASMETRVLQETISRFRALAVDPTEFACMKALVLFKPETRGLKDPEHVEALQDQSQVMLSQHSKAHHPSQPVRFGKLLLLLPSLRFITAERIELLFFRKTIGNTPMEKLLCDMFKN
NR2E3 p.G56R (Q9Y5X4-1, form named): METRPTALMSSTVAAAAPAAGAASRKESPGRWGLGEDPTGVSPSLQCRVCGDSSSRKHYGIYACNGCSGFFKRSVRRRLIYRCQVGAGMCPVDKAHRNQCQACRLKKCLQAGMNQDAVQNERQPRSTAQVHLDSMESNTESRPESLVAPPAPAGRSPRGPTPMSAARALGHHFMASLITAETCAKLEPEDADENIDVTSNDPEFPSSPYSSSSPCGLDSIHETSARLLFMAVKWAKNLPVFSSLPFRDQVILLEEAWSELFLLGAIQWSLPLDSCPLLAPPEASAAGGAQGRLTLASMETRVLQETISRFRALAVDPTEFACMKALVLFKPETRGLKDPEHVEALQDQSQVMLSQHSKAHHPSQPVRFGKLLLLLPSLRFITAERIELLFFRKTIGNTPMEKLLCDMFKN
NR2E3 p.G88V (Q9Y5X4-1, form named): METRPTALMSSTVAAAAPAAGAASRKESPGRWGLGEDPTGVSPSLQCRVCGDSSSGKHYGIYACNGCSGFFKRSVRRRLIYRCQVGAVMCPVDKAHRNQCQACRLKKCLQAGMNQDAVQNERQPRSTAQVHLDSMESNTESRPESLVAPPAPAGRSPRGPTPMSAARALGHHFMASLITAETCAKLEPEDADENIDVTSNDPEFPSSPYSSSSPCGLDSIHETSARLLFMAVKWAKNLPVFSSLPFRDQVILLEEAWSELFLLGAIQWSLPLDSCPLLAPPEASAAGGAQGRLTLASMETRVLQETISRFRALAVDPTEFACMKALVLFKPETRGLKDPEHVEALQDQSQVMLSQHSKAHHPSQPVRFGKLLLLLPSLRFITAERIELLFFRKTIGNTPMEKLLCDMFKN
NR2E3 p.L263P (Q9Y5X4-1, form named): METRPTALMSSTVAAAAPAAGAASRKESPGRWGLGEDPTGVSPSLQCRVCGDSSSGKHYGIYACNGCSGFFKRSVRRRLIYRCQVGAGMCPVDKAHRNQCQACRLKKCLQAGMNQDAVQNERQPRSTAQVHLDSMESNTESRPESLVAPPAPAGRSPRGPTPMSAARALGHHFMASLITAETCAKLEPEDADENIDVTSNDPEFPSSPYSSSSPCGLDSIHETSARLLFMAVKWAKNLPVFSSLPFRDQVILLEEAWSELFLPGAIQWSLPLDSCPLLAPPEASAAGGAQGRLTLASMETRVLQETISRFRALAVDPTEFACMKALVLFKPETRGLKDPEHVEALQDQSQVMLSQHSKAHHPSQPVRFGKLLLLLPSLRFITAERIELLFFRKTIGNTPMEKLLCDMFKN
NR2E3 p.L336P (Q9Y5X4-1, form named): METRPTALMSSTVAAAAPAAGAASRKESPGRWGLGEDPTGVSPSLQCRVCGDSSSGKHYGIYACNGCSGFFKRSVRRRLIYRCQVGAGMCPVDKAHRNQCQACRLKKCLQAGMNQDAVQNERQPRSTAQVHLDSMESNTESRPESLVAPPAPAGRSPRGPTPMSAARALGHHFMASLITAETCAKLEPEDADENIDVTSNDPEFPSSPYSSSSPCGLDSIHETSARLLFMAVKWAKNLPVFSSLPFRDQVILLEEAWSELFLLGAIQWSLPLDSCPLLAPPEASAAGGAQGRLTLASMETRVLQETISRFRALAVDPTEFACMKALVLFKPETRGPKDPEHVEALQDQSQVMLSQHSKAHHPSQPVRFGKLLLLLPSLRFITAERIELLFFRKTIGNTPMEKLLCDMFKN
NR2E3 p.L353V (Q9Y5X4-1, form named): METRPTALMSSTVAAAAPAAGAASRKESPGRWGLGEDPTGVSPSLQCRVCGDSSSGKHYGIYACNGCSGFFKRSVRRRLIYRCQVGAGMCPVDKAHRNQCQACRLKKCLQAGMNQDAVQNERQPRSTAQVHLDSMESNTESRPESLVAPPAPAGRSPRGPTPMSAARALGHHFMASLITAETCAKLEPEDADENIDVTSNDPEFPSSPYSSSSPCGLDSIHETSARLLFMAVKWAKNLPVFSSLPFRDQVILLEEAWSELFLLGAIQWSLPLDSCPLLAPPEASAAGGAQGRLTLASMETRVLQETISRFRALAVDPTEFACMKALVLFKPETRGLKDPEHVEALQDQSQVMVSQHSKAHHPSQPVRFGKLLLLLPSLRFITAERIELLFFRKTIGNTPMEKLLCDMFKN
NR2E3 p.M407K (Q9Y5X4-1, form named): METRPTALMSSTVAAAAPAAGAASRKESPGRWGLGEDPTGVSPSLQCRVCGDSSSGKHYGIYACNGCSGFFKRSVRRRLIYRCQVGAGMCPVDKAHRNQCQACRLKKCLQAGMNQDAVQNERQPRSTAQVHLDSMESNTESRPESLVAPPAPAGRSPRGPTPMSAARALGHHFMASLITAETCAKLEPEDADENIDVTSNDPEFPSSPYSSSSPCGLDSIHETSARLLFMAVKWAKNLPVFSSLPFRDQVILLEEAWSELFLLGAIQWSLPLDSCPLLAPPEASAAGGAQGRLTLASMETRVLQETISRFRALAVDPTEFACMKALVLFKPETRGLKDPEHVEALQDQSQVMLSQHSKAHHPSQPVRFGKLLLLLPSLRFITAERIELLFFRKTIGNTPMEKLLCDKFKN
NR2E3 p.N65_C67del (Q9Y5X4-1, form named): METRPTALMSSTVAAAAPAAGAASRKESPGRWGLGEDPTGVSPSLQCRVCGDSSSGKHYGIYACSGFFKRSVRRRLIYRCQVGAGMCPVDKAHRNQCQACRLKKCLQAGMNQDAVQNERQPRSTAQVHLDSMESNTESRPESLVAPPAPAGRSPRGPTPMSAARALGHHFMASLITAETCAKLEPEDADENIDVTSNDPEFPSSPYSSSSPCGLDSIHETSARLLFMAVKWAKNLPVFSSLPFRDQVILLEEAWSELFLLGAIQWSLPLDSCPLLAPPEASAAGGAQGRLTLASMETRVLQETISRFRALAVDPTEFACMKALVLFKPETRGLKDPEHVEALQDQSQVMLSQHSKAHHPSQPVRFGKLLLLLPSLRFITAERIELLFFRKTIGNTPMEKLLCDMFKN
NR2E3 p.R76Q (Q9Y5X4-1, form named): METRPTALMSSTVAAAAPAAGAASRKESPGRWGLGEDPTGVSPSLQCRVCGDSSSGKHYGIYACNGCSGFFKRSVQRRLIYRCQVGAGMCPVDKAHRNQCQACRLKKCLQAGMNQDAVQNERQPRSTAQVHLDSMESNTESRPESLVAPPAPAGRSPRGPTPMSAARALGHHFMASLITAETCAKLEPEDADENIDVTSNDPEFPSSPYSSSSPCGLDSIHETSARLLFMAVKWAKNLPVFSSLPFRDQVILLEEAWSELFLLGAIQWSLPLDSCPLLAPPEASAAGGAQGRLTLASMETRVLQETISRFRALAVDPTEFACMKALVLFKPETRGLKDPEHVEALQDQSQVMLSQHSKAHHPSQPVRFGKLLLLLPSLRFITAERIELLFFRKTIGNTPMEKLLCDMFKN
NR2E3 p.R76W (Q9Y5X4-1, form named): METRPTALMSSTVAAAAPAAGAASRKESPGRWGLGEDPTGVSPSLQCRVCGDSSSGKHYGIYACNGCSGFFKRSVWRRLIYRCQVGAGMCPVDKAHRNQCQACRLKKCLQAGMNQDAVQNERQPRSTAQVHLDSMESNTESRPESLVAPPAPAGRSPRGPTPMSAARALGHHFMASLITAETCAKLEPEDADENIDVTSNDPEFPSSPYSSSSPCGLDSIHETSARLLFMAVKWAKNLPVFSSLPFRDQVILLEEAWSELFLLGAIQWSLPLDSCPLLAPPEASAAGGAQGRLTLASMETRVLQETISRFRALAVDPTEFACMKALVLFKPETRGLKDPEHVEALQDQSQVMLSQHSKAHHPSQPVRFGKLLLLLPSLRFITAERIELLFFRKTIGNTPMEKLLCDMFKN
NR2E3 p.R97H (Q9Y5X4-1, form named): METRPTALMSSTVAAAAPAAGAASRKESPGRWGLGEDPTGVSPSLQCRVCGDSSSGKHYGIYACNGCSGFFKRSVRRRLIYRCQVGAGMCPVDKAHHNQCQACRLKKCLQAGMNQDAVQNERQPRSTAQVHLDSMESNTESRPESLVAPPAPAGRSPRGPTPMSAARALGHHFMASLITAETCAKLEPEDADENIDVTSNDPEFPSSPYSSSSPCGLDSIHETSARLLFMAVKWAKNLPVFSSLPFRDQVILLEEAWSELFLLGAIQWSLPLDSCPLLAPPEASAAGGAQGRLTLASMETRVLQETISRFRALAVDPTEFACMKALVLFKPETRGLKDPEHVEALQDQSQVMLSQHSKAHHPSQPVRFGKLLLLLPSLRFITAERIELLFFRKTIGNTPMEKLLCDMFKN
NR2E3 p.R104Q (Q9Y5X4-1, form named): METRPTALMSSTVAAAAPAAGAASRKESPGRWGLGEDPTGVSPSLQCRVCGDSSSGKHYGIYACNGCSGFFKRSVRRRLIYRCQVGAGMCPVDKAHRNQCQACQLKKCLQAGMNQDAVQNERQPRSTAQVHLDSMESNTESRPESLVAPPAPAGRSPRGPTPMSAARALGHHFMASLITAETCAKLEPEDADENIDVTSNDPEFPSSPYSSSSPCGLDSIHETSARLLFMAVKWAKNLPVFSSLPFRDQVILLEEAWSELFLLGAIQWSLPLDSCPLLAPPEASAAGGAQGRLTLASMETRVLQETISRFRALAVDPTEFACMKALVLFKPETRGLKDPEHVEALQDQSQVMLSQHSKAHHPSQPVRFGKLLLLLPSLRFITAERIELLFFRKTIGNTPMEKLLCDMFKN
NR2E3 p.R309G (Q9Y5X4-1, form named): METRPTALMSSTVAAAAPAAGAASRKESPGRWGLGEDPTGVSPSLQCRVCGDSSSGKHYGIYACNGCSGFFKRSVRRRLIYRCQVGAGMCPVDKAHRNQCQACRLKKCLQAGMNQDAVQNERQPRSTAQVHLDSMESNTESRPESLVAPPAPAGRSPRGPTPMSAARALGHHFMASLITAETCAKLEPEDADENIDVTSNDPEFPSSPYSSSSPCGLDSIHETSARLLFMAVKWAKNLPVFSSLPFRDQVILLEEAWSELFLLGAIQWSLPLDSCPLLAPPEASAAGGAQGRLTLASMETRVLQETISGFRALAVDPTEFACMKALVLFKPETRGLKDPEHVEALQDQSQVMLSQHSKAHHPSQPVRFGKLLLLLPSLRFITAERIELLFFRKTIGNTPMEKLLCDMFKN

Assays:
[1] = target: neural retina leucine zipper (NRL), V5-tagged (UniProt P54845); assay: co-IP; COS-1 cells cotransfected with Xpress-tagged WT or mutant NR2E3 and pED-NRL-V5 or -CRX-V5; sonicated cell extracts in 1x PBS with protease inhibitors; Protein-G beads and goat anti-V5 antibody overnight at 4 °C; beads washed with 1x PBS, 1% Triton X-100; NR2E3 detected with mouse anti-Xpress antibody
[2] = target: cone-rod homeobox (CRX), V5-tagged (UniProt O43186); assay: as above

Row | binding [1] | binding [2] | Substance
1 | binds | binds | NR2E3 p.A256E (from UniProt Q9Y5X4-1 1-410)
2 | binds | binds | NR2E3 p.E121K (from UniProt Q9Y5X4-1 1-410)
3 | binds | binds | NR2E3 p.G56R (from UniProt Q9Y5X4-1 1-410)
4 | binds | binds | NR2E3 p.G88V (from UniProt Q9Y5X4-1 1-410)
5 | binds | binds | NR2E3 p.L263P (from UniProt Q9Y5X4-1 1-410)
6 | – | binds | NR2E3 p.L336P (from UniProt Q9Y5X4-1 1-410)
7 | – | binds | NR2E3 p.L353V (from UniProt Q9Y5X4-1 1-410)
8 | binds | binds | NR2E3 p.M407K (from UniProt Q9Y5X4-1 1-410)
9 | binds | binds | NR2E3 p.N65_C67del (from UniProt Q9Y5X4-1 1-410)
10 | binds | binds | NR2E3 p.Q350X (from UniProt Q9Y5X4-1 1-349)
11 | binds | – | NR2E3 p.R76Q (from UniProt Q9Y5X4-1 1-410)
12 | binds | – | NR2E3 p.R76W (from UniProt Q9Y5X4-1 1-410)
13 | binds | – | NR2E3 p.R97H (from UniProt Q9Y5X4-1 1-410)
14 | binds | – | NR2E3 p.R104Q (from UniProt Q9Y5X4-1 1-410)
15 | binds | binds | NR2E3 p.R309G (from UniProt Q9Y5X4-1 1-410)
16 | binds | binds | NR2E3 p.R311Q (from UniProt Q9Y5X4-1 1-410)
17 | binds | binds | NR2E3 p.R334G (from UniProt Q9Y5X4-1 1-410)
18 | binds | binds | NR2E3 p.R385P (from UniProt Q9Y5X4-1 1-410)
19 | binds | binds | NR2E3 p.V232I (from UniProt Q9Y5X4-1 1-410)
20 | binds | binds | NR2E3 p.V302I (from UniProt Q9Y5X4-1 1-410)
21 | binds | binds | NR2E3 p.W234S (from UniProt Q9Y5X4-1 1-410)
22 | binds | binds | photoreceptor-specific nuclear receptor NR2E3 (nuclear receptor subfamily 2 group E member 3), wild type (from UniProt Q9Y5X4-1 1-410)
